Article doi:10.1101/2020.11.10.376178
These are yes or no findings as the source states them, for the method shown. Binding seen in cells or lysates may run through a third protein. Binding can be weak; no strength is given.

Amino acid sequences for entries named in this document (tags omitted). A change or cut given only in a name is not applied to a line headed by its entry. Residues count along the entry.
UniProt P06213, residues 28-1382: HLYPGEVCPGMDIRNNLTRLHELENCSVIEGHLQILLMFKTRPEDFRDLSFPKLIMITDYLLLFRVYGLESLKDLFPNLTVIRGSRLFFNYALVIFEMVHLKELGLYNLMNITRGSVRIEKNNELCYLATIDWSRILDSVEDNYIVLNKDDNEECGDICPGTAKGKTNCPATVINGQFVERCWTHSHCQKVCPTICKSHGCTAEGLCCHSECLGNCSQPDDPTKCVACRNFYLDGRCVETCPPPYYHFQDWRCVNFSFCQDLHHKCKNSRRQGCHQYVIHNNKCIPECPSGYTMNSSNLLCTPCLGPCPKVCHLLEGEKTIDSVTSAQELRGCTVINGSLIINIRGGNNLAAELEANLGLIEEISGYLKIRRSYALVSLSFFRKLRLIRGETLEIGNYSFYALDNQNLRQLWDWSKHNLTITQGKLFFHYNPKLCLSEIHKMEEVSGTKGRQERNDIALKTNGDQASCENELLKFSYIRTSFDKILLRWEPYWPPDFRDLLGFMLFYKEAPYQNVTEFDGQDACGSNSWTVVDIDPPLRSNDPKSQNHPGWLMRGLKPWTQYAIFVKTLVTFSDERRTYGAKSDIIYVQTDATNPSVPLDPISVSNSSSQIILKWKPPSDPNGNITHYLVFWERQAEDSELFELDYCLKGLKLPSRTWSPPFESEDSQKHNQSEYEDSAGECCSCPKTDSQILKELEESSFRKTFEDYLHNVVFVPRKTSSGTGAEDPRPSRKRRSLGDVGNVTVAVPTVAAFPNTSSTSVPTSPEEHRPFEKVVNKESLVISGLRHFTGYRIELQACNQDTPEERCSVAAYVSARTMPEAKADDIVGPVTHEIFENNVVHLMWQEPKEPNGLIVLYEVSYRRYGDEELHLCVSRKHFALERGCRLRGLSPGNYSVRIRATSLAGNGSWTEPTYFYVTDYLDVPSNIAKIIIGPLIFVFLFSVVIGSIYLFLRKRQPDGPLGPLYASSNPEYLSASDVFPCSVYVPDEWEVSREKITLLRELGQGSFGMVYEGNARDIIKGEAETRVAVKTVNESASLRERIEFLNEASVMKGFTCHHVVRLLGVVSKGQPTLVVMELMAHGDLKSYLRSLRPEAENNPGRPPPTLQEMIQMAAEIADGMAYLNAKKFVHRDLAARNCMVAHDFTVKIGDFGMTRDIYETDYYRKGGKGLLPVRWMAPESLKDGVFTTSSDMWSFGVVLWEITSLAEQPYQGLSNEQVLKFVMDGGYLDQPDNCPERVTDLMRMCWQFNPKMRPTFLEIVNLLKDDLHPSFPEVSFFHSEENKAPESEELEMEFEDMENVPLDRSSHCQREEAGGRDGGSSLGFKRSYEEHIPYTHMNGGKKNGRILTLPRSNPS
UniProt Q8WY21: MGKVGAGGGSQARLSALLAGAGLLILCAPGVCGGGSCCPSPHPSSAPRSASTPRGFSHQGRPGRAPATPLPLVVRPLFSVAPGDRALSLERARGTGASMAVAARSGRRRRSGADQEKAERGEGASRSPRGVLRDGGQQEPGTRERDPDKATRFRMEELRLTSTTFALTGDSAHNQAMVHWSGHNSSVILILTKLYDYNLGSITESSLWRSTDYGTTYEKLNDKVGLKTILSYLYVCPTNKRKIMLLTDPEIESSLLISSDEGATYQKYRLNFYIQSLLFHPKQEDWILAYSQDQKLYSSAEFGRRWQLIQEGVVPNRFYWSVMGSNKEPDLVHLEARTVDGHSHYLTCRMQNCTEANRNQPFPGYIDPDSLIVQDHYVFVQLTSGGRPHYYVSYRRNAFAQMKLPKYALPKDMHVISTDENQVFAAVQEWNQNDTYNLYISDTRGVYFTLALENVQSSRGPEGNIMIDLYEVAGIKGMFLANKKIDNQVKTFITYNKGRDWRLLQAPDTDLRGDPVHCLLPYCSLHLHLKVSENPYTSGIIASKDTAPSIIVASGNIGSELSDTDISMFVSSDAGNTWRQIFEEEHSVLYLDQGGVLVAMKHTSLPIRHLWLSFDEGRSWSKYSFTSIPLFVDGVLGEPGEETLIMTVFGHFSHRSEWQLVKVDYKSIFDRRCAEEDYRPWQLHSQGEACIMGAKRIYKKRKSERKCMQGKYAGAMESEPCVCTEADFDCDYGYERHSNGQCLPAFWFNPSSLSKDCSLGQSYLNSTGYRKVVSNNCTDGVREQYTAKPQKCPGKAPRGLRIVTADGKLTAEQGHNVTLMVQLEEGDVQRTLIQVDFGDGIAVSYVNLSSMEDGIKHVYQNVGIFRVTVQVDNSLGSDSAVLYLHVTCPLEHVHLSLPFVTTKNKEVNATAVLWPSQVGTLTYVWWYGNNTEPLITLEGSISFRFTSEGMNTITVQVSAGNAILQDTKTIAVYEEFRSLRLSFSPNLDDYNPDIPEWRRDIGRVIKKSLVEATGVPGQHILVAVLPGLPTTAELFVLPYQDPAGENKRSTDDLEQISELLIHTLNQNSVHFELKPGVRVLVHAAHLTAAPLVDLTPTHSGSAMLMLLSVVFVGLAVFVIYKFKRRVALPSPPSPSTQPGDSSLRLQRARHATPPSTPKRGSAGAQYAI

What was measured:
[1] = molecular target: insulin receptor (UniProt P06213); experiment: co-IP
[2] = molecular target: SorCS1 (UniProt Q8WY21); experiment: co-IP

Row | binding [1] | binding [2] | Substance
1 | binds | – | SorCS1 (from UniProt Q8WY21) (receptor)
2 | – | binds | insulin receptor (from UniProt P06213 28-1382)
